# In PubChem BioAssay AID2685 (National Center for Advancing Translational Sciences (NCATS), 2010):
# The list shows a part of the results. These are further read-outs of the screen, such as a control signal, another cell line or another target. No call is given for them. Compounds called inactive in the main read-out are mostly missing here. The note in brackets gives the kind of curve behind each potency; many fits are weak.
# Assay: qHTS Assay for Lipid Storage Modulators in Drosophila S3 Cells;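 for cell number change: cells counted by Cell Tracker Red CMTPX staining in the red channel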
# Conditions: BODIPY lipid droplet fluorescence, 18-24 h; for cell number change: measured here: cell count max response, cells fed with added oleic acid
# How it was run: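 Drosophila S3 cells loaded with oleic acid (400 uM, as added) and compounds at several concentrations; lipid droplets imaged by 488-nm laser-scanning cytometry, 500–530 nm intensity and object ratio to cell channel. Percent activity normalized to 20 uM Triacsin C.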
# [1] = measured here: lipid fluorescence (Fed channel) AC50, cells fed with added oleic acid
# [2] = measured here: cell number channel AC50, cells fed with added oleic acid
Compound,AC50 [1],cell number change,AC50 [2]
O=C1Nc2ccc(Br)cc2C12NNc1ccccc1O2 (configuration not stated),"18.4 µM [falling, partial curve]",–,–
CC1CCCCC1NC(=O)NC(=O)COC(=O)c1cncc(Br)c1 (configuration not stated),–,-35.7%,"29.1 µM [falling, single point]"
NC(=O)CC(NC(=O)Cc1ccc(Cl)cc1)c1ccc(NCC2CC2)c([N+](=O)[O-])c1 (configuration not stated),"13 µM [rising, single point]",11.7%,–
CN(C)/C=C1\SC(=S)N(N2C(=O)C3C4C=CC(C4)C3C2=O)C1=O (configuration not stated),"0.0146 µM [falling, full curve]",-33%,–
Oc1ccc(C2=NNC(c3ccc(O)cc3)=NN2)cc1,"0.00461 µM [rising, full curve, poor fit]",-6.29%,–
O=C(Cn1cnc([N+](=O)[O-])c1)NCCc1ccccc1,–,6.8%,"5.17 µM [rising, partial curve]"
O=C1C(=Cc2cccn2-c2ccc(O)cc2)C(=O)c2ccccc21,–,39%,"5.8 µM [rising, partial curve]"
FC(F)(F)C(F)(F)C(F)(F)c1nnc2ccc(N3CCOCC3)nn12,"0.651 µM [falling, single point]",–,"2.31 µM [falling, partial curve]"
COC(=O)[C@@]12CCCCN1[C@H](c1ccc(-c3ccc(C(C)=O)cc3)cc1)[C@@H]1C(=O)N(C)C(=O)[C@@H]12,–,-32.6%,"6.51 µM [falling, full curve, poor fit]"
COc1ccc(NC(=O)CSc2nnc(-c3ccccn3)n2N)cc1Cl,"0.116 µM [falling, single point]",-8.86%,–
O=C(O)CCCC(=O)NNC(=O)c1cccc(Br)c1,–,11.8%,–
CCOC(=O)c1c(NC(=O)C(C)OC(=O)C2=COCCO2)sc2c1CCCC2 (configuration not stated),–,-17.5%,–
O=C(OCCN1CCCCC1)c1cccc(F)c1,"29.1 µM [falling, single point]",-20.2%,–
CCOC(=O)C(=O)NC12CC3CC(CC(C3)C1)C2,"25.9 µM [rising, single point]",-30.5%,"0.058 µM [falling, full curve]"
CCN(CC)S(=O)(=O)c1cc(C(=O)c2nccn2C)ccc1Cl,"29.1 µM [falling, single point]",-20.3%,–
O=C(Cc1c(F)cccc1Cl)N1CCN(S(=O)(=O)c2cccc(F)c2)CC1,"0.58 µM [falling, single point]",–,–
Cc1ccc(C(=O)NCC(=O)N2CCCCCCC2)cc1C,"6.51 µM [falling, single point]",-19.9%,–
CCn1cc(S(=O)(=O)NCc2ccccc2Br)cn1,"18.4 µM [falling, single point]",0.829%,–
Cc1ccc(-n2nc(C)c(/C=N/NC(=O)c3cccnc3)c2Cl)cc1,–,-4.55%,–
O=C(NC(=S)Nc1ccccc1Cl)c1cncc(Br)c1,"18.4 µM [rising, partial curve]",–,–
O=C(c1ccc2ncsc2c1)N1CCCC(C(F)(F)F)C1 (configuration not stated),"20.6 µM [rising, partial curve]",147%,"10.3 µM [rising, partial curve]"

Compound,AC50 [1],cell number change,AC50 [2]
Oc1ccc(-c2nc3ccc4ccccc4c3c3c2CCC3)cc1O,"29.1 µM [falling, single point]",-42.7%,"25.9 µM [falling, single point]"
COc1ccc(Cc2nnc(NS(=O)(=O)c3ccccc3)s2)cc1,"0.651 µM [rising, single point]",17.4%,–
NS(=O)(=O)c1ccc2nc(NC(=O)Nc3ccccc3F)sc2c1,–,-5.22%,–
COc1ccc2c(c1)N(C)/C(=C/c1cccc[n+]1C)S2,–,84.7%,"29.1 µM [rising, single point]"
CCOC(=O)c1c(C)nc(C)c(C(=O)OCC)c1-c1ccco1,–,25.1%,"2.59 µM [rising, full curve, poor fit]"
Cc1ccc(NC(=O)C2CCN(S(=O)(=O)c3ccc4c(c3)C(C)(C)C(=O)N4C)CC2)c(C)c1,"10.3 µM [rising, partial curve]",3.89%,–
COc1ccc(N2CCN(C(=O)c3cc4c(-c5ccc(Cl)cc5)nn(C)c4s3)CC2)cc1,–,-9.59%,"0.461 µM [rising, full curve, poor fit]"
O=C1CSC(c2ccc3c(c2)OCO3)N1c1ccc(Oc2ccccc2)cc1 (configuration not stated),"29.1 µM [rising, single point]",19.6%,–
COc1cc(CN(C)CC(=O)c2[nH]c(C)c(C(C)=O)c2C)ccc1OC(F)F,"0.731 µM [rising, single point]",–,"0.58 µM [rising, single point]"
CC(=O)c1sc(N/N=C\c2ccccc2O)nc1C,"0.731 µM [falling, single point]",-26.9%,–
COc1ccccc1N1CCN(C(=O)c2cccs2)CC1,"9.2 µM [rising, partial curve]",21.6%,–
Cc1ccc(S(=O)(=O)CCC(=O)Nc2cc(Cl)ccc2-n2cncn2)cc1,–,63.5%,–
CCc1c(C)nc(SCC(=O)c2ccc(C)c(C)c2)[nH]c1=O,"16.4 µM [rising, single point]",-21.3%,–
CCC1(C)Cc2c(sc3c2c(=O)n(C)c2nnc(SCc4ccccc4)n32)CO1 (configuration not stated),–,-13.6%,–
O=c1/c(=C\c2ccc(O)cc2)sc2n1C(c1ccccc1)C(c1ccccc1)=NN=2 (configuration not stated),"0.146 µM [rising, full curve, poor fit]",65.9%,"14.6 µM [rising, partial curve]"
O=C(COc1ccc([N+](=O)[O-])cc1)Nc1ccc(S(=O)(=O)N2CCOCC2)cc1,–,17%,–
O=c1[nH]c(-c2ccc(O)cc2)nc2scc(-c3cccs3)c12,"3.66 µM [rising, single point]",-33.6%,–
COc1cc(OC)cc(C(=O)OCC(=O)Nc2ccc(N3CCCCC3)cc2)c1,"4.61 µM [rising, single point]",4.92%,–
O=C(CSc1nccn1-c1ccc(F)cc1)NCc1ccc2c(c1)OCO2,"29.1 µM [rising, single point]",16.4%,–
COc1cccc2cc(CC(=O)c3ccccc3)c(=O)oc12,–,-3.55%,–
Cc1ccc(-c2cc(C(=O)Nc3ccccc3C)c3ccccc3n2)o1,"25.9 µM [falling, single point]",-34.4%,"23.1 µM [falling, partial curve]"

# 5 records picked at random from the list so far, as already listed:
Compound,AC50 [1],cell number change,AC50 [2]
COc1ccc(N2CCN(C(=O)c3cc4c(-c5ccc(Cl)cc5)nn(C)c4s3)CC2)cc1,–,-9.59%,"0.461 µM [rising, full curve, poor fit]"
CCc1c(C)nc(SCC(=O)c2ccc(C)c(C)c2)[nH]c1=O,"16.4 µM [rising, single point]",-21.3%,–
CN(C)/C=C1\SC(=S)N(N2C(=O)C3C4C=CC(C4)C3C2=O)C1=O (configuration not stated),"0.0146 µM [falling, full curve]",-33%,–
O=C(c1ccc2ncsc2c1)N1CCCC(C(F)(F)F)C1 (configuration not stated),"20.6 µM [rising, partial curve]",147%,"10.3 µM [rising, partial curve]"
O=C(OCCN1CCCCC1)c1cccc(F)c1,"29.1 µM [falling, single point]",-20.2%,–

# Later entries:

Compound,AC50 [1],cell number change,AC50 [2]
CCN1C(=NCCCCO)N[C@@H](c2ccccc2)C(C(=O)OC)=C1C,"29.1 µM [rising, single point]",7.97%,–
OCCn1c(-c2ccc3c(c2)OCO3)csc1=Nc1ccccc1,–,–,"0.731 µM [rising, full curve]"
Cc1cc(/C=C2/NC(=O)N(Cc3ccccc3F)C2=O)c(C)n1C,"0.0326 µM [rising, full curve, poor fit]",21.5%,–
CC(NC(=O)CSc1nc2ccccc2c(=O)[nH]1)c1ccccc1 (configuration not stated),"0.0731 µM [rising, full curve, poor fit]",12%,–
COc1ccc(S(=O)(=O)N(CCCN2CCOCC2)Cc2ccc(OC)c(OC)c2)cc1,"5.17 µM [rising, full curve, poor fit]",92.5%,"20.6 µM [rising, partial curve]"
Cc1ccc(-c2cc(-c3ccccc3O)nc(N/N=C/c3cccnc3)n2)cc1,"3.26 µM [falling, partial curve]",0.986%,–
CCOc1cc(/C=N/O)ccc1OCc1ccc([N+](=O)[O-])cc1,"9.2 µM [rising, partial curve]",28%,–
COc1cc(/C=C(\C#N)C(=O)N2CCOCC2)ccc1OCc1ccccc1,"0.00461 µM [rising, full curve, poor fit]",–,–
CC(=O)NCCc1nc2cc(NS(=O)(=O)c3ccccc3)ccc2n1C,–,14.8%,–
COC(=O)c1ccccc1NC(=O)CSc1[nH]c(=O)cc(C)c1C#N,–,-8.97%,–
COc1cccc(NS(=O)(=O)c2ccc(-n3cccn3)cc2)c1,"1.3 µM [falling, full curve]",–,–
CCCN1CCN(C(=S)Nc2ccc3nc(N4CCN(CC)CC4)cc(C)c3c2)CC1,"3.26 µM [falling, single point]",21.7%,–
Cc1ccc(Cc2nnc(SCC(=O)Nc3ccccc3Cl)[nH]c2=O)cc1,"29.1 µM [rising, single point]",25.5%,–
C=CCn1c(SCC(=O)N(C(C)CC)C2CCS(=O)(=O)C2)nc2ccccc2c1=O (configuration not stated),–,–,"3.26 µM [rising, partial curve]"
Cc1c(C)c2cc(Cl)c(O)c(CN3CCCCC3)c2oc1=O,"6.51 µM [falling, single point]",12.5%,–
Cc1ccc(NC(=O)c2ccc3c(c2)C(=O)N(CC2CCCO2)C3=O)cc1C (configuration not stated),"9.2 µM [falling, partial curve]",-23.9%,–
Cc1ccc(S(=O)(=O)N2CCN(C(=O)CSc3n[nH]c(N)n3)CC2)c(C)c1,"2.59 µM [rising, full curve]",-2.68%,–
O=C(O)CC1Sc2nnc(COc3ccc(Cl)cc3)n2N=C1c1ccccc1 (configuration not stated),"5.17 µM [falling, single point]",-1.21%,–
COc1cc(OC)c(OC)cc1/C=C/c1cc(C(F)(F)F)[nH]c(=O)n1,"13 µM [rising, partial curve, poor fit]",–,–
CCc1ccc(NC(=O)C(C)OC(=O)c2ccc(NS(=O)(=O)c3ccc(C)c([N+](=O)[O-])c3)cc2)cc1 (configuration not stated),–,-16.7%,"0.116 µM [rising, full curve, poor fit]"
